Reference: publication PMC11425265
No constants are given. Whether binding was seen depends on the method and setting. Binding seen in cells or lysates may run through a third protein. Here binding means that the protein was enriched with, or labelled near, the bait; the list need not be complete.

Amino acid sequences for entries named in this document (tags omitted).
UniProt P62316: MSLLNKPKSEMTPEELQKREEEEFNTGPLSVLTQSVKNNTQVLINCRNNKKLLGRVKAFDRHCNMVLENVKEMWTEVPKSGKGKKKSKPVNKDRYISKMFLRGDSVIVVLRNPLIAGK

Target: SNRPD2 (PD2) (human) (UniProt P62316)
Assay: affinity purification with mass spectrometry; IP-MS of PD2-interacting proteins, compared with the proteins pulled down by DDX39A pre-mRNA probes; cells and antibody not told in the text shown

binding: binds
B1: HNRNPL (PL) (protein, UniProt P14866 1-589)
chain: MSRRLLPRAEKRRRRLEQRQQPDEQRRRSGAMVKMAAAGGGGGGGRYYGGGSEGGRAPKRLKTDNAGDQHGGGGGGGGGAGAAGGGGGGENYDDPHKTPASPVVHIRGLIDGVVEADLVEALQEFGPISYVVVMPKKRQALVEFEDVLGACNAVNYAADNQIYIAGHPAFVNYSTSQKISRPGDSDDSRSVNSVLLFTILNPIYSITTDVLYTICNPCGPVQRIVIFRKNGVQAMVEFDSVQSAQRAKASLNGADIYSGCCTLKIEYAKPTRLNVFKNDQDTWDYTNPNLSGQGDPGSNPNKRQRQPPLLGDHPAEYGGPHGGYHSHYHDEGYGPPPPHYEGRRMGPPVGGHRRGPSRYGPQYGHPPPPPPPPEYGPHADSPVLMVYGLDQSKMNCDRVFNVFCLYGNVEKVKFMKSKPGAAMVEMADGYAVDRAITHLNNNFMFGQKLNVCVSKQPAIMPGQSYGLEDGSCSYKDFSESRNNRFSTPEQAAKNRIQHPSNVLHFFNAPLEVTEENFFEICDELGVKRPSSVKVFSGKSERSSSGLLEWESKSDALETLGFLNHYQMKNPNGPYPYTLKLCFSTAQHAS
